# According to paper PMC7939391, “[4Fe-4S] cluster trafficking mediated by Arabidopsis mitochondrial ISCA and NFU proteins” (The Journal of Biological Chemistry, 2021):
# Protein sequences, listed by entry. Tags and fused reporters are not part of them. Lines headed by an entry give the natural chain unless they say otherwise; changes in a name come on top.
# UniProt Q8LBM4: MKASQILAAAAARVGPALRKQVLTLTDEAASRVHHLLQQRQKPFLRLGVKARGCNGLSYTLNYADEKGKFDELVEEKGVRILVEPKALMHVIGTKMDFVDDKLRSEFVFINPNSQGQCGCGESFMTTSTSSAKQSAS
# UniProt Q8LCY2: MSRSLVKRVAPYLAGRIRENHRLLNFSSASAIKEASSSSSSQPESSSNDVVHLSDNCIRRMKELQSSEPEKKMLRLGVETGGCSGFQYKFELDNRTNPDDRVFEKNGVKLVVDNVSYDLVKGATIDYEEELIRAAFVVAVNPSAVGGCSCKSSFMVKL
# Target: recombinant Arabidopsis ISCA1a, coexpressed with ISCA2 (Arabidopsis thaliana) (UniProt Q8LBM4)
# Test: co-expression and co-purification; ISCA1a and ISCA2 coexpressed in E. coli BL21 (DE3) from one pCDF-Duet plasmid and purified together as a [2Fe-2S] cluster-containing heterocomplex; after reconstitution eluted from Q-Sepharose as a single colored fraction
substance,measurement,value
"recombinant Arabidopsis ISCA2, coexpressed with ISCA1a (from UniProt Q8LCY2)",binding,binds

# These are yes or no findings as the source states them, for the method shown. In cells and extracts the contact can be indirect. A result given as binding can be weak or reduced; the word gives no strength.
